Measurements reported in patent US20140357579A1 (priority 2006, published 2014).

What was measured:
[1] = general procedure: Fmoc solid-phase peptide synthesis; p-nitrophenylcarbonate Wang resin; DIC/HOBt, HATU/DIEA, HBTU/DIEA, TBTU/DIEA, PyBOP/DIEA, BOP/DIEA; conditions: whole synthesis, scale 4.4 mmol
[2] = general procedure: Fmoc solid-phase peptide synthesis; 2-chlorotrityl chloride resin, hydrazinobenzoyl resin, Rink Amide AM resin or p-nitrophenylcarbonate Wang resin; DIC/HOBt, HATU/DIEA, HBTU/DIEA, TBTU/DIEA, PyBOP/DIEA, BOP/DIEA; conditions: for final HPLC purity: analytical RP-HPLC, Vydac C18, UV detector
[3] = general procedure: Fmoc solid-phase peptide synthesis; 2-Chlorotrityl chloride resin; DIC/HOBt, HATU/DIEA, HBTU/DIEA, TBTU/DIEA, PyBOP/DIEA, BOP/DIEA; conditions: whole synthesis
[4] = general procedure: Fmoc solid-phase peptide synthesis; Rink Amide AM resin; DIC/HOBt, HATU/DIEA, HBTU/DIEA, TBTU/DIEA, PyBOP/DIEA, BOP/DIEA; conditions: whole synthesis, scale 0.3 mmol
[5] = whole synthesis, scale 0.3 mmol
[6] = whole synthesis, scale 0.4 mmol

“Cbz-D-Phe-D-Phe-D-Leu-D-Orn(Cbz)-[homopiperazine amide]” showed a crude mass [1] of 4.4 g.

In the case of “D-Phe-D-Phe-D-Leu-(6-iPr)D-Orn-[homopiperazine amide]”, the “final HPLC purity” value ([2]; late stage modification step) is reported as 100%.

With “D-Phe-D-Phe-D-Leu-(-Me)D-Orn-[homopiperazine amide]” the “final HPLC purity” value ([2]; late stage modification step) was 99.6%.

With “D-Phe-D-Phe-D-Leu-(δ-Me)D-Orn-[4-Amidinohomopiperazine amide]” the “final HPLC purity” value ([2]; whole synthesis) was 98.9% and the isolated mass [2, 5] was 183 mg.

For “D-Phe-D-Phe-D-Leu-(δ-iPr)D-Orn-[4-Amidinohomopiperazine amide]”, the “final HPLC purity” value ([2]; whole synthesis) was 99.4% and the isolated mass [2, 5] was 166 mg.

In the case of “D-Phe-D-Phe-D-Leu-(δ-iPr)D-Orn-[omega(4-Aminopiperidine-4-carboxylic acid)]-OH”, the “final HPLC purity” value ([2]; whole synthesis) is reported as 98.9% and the isolated mass ([3]; scale 0.8 mmol) is reported as 336 mg.

With “D-Phe-D-Phe-D-Leu-D-Orn-[4-(2-aminoethyl)-1-carboxymethyl-piperazine]-NH2” the crude mass [4] was 0.1 g and the “final HPLC purity” value ([2]; whole synthesis) was 99.5%.

For “D-Phe-D-Phe-D-Leu-D-Orn-[4-(2-aminoethyl)-1-carboxymethyl-piperazine]-OH”, the “final HPLC purity” value ([2]; whole synthesis) was 100%, the isolated mass [2, 6] was 101 mg and the crude mass ([3]; scale 0.4 mmol) was 0.2 g.

In the case of “D-Phe-D-Phe-D-Leu-D-Orn-[4-(4,5-dihydro-1H-imidazol-2-yl)homopiperazine amide]”, the “final HPLC purity” value ([2]; late stage modification step) is reported as 100%.

In the case of “D-Phe-D-Phe-D-Leu-D-Orn-[4-(4-piperidinyl)-butanoic acid]-OH”, the “final HPLC purity” value ([2]; whole synthesis) is reported as 100% and the isolated mass [2, 6] is reported as 474 mg.

With “D-Phe-D-Phe-D-Leu-D-Orn-[4-Amidinohomopiperazine amide]” the “final HPLC purity” value ([2]; late stage modification step) was 98.7%.

For “D-Phe-D-Phe-D-Leu-D-Orn-[4-Amino-1-carboxymethyl-piperidine]-NH2”, the “final HPLC purity” value ([2]; whole synthesis) was 99.7% and the isolated mass [2, 5] was 65 mg.

With “D-Phe-D-Phe-D-Leu-D-Orn-[4-Carboxymethyl-piperidine]-OH” the “final HPLC purity” value ([2]; whole synthesis) was 100% and the isolated mass [2, 6] was 123 mg.

In the case of “D-Phe-D-Phe-D-Leu-D-Orn-[4-ethylhomopiperazine amide]”, the “final HPLC purity” value ([2]; late stage modification step) is reported as 98.4%.

For “D-Phe-D-Phe-D-Leu-D-Orn-[(2S,4R)-4-Amino-pyrrolidine-2-carboxylic acid]-OH”, the “final HPLC purity” value ([2]; whole synthesis) was 99.4% and the isolated mass [2, 5] was 294 mg.

For “D-Phe-D-Phe-D-Leu-D-Orn-[(2S,4S)-4-Amino-pyrrolidine-2-carboxylic acid]-OH”, the “final HPLC purity” value ([2]; whole synthesis) was 99.5% and the isolated mass [2, 5] was 285 mg.

With “D-Phe-D-Phe-D-Leu-D-Orn-[Isonipecotic acid]-OH” the “final HPLC purity” value ([2]; whole synthesis) was 99.3% and the isolated mass [2, 6] was 125 mg.

In the case of “D-Phe-D-Phe-D-Leu-D-Orn-[N-(4-piperidinyl)-L-proline]-NH2”, the “final HPLC purity” value ([2]; whole synthesis) is reported as 91.7% and the isolated mass [2, 5] is reported as 14 mg.

For “D-Phe-D-Phe-D-Leu-D-Orn-[N-(4-piperidinyl)-L-proline]-OH”, the “final HPLC purity” value ([2]; whole synthesis) was 100% and the isolated mass [2, 6] was 18 mg.

For “D-Phe-D-Phe-D-Leu-D-Orn-[eLys(D-Orn-D-Leu-H)]-OH”, the “final HPLC purity” value ([2]; whole synthesis) was 99.7% and the isolated mass [2, 5] was 396 mg.

For “D-Phe-D-Phe-D-Leu-D-Orn-[homopiperazine amide]”, the “final HPLC purity” value ([2]; late stage modification step) was 100%.

With “D-Phe-D-Phe-D-Leu-D-Orn-[omega(4-Aminopiperidine-4-carboxylic acid)]-OH” the “final HPLC purity” value ([2]; whole synthesis) was 99.7% and the isolated mass [2, 5] was 343 mg.

In the case of D-Phe-D-Phe-D-Nle-D-Arg-D-Pro-OH, the “final HPLC purity” value ([2]; whole synthesis) is reported as 99.7% and the isolated mass [2, 5] is reported as 140 mg.

With “PEPTIDE1{[dF].[dF].[dL].[D-Orn].[4-(N-methyl)amidinohomopiperazine]}$$$$V2.0” the “final HPLC purity” value ([2]; late stage modification step) was 99.4%.

For some assays here: Strings that start with PEPTIDE1 are HELM notation: dots part the residues, brackets hold end groups and non-standard residues.
